# According to paper PMC3750171:
# By UniProt entry, the sequences of proteins in these tests, tags left out. Where a name states a change or a piece, a line headed by the entry shows the natural chain unless it says otherwise. Residues count along the entry.
# UniProt Q16584: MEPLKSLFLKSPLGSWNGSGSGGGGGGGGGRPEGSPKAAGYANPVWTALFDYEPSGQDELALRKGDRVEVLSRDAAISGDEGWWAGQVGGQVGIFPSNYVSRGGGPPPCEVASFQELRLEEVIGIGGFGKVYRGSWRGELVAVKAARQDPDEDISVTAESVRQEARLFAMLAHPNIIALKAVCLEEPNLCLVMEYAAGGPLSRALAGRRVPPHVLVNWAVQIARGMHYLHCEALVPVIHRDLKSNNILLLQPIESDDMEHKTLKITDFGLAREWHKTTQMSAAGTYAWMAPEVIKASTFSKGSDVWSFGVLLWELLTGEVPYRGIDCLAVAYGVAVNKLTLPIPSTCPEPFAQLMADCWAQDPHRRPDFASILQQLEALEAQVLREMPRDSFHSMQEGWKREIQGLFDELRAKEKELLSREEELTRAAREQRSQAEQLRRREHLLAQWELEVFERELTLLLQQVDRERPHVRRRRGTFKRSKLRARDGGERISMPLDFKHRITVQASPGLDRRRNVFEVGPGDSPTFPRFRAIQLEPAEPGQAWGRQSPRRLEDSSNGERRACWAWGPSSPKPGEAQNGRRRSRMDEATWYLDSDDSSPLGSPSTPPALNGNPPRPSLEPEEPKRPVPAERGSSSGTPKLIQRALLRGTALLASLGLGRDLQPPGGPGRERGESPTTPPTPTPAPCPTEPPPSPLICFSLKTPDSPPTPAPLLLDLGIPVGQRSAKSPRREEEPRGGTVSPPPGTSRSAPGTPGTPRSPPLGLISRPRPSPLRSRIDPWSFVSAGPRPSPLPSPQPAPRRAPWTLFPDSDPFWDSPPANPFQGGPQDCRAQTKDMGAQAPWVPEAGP
# UniProt Q99IB8, residues 1977-2442: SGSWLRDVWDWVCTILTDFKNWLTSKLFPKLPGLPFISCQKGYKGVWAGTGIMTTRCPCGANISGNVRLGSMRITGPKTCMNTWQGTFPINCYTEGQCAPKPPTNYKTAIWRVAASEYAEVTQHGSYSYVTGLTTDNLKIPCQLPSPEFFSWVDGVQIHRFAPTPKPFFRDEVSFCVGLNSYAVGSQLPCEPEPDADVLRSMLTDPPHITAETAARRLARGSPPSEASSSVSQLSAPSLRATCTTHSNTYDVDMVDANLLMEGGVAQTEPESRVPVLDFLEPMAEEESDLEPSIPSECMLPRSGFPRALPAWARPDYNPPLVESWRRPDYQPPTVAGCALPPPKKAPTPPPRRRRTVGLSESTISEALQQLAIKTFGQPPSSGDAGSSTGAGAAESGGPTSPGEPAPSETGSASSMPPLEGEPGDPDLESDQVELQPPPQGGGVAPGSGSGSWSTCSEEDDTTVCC
# These are yes or no findings as the source states them, for the method shown. Binding seen in cells or lysates may run through a third protein. Some binding calls cover weakened binding; strength is not graded here.
# Experiments:
# [1] = molecular target: mixed lineage kinase 3 (MLK3), endogenous in Huh7 replicon cells (human (endogenous in Huh7)) (UniProt Q16584); assay: co-IP; lysates of Huh7 cells harbouring SGR-JFH1 immunoprecipitated with an anti-MLK3 monoclonal antibody; Western blot for MLK3 and NS5A; control IgG in parallel
# [2] = molecular target: FLAG-tagged MLK3, K144E kinase-dead mutant (UniProt Q16584); assay: co-IP; Huh7 cells co-transfected with NS5A (wild type or PA2) and FLAG-MLK3 (wild type or K144E); lysis in 0.25% deoxycholic acid, 0.1% Triton X-100, 150 mM NaCl, 100 mM Tris/HCl pH 8.0; anti-FLAG M2 for 1 h at 4 °C, protein G Sepharose; Western blot for NS5A and MLK3
# [3] = molecular target: FLAG-tagged MLK3, wild type (UniProt Q16584); assay: as above
# [4] = molecular target: One-STrEP-tagged NS5A, wild type, from the subgenomic replicon pSGR-JFH1-5A1ST (hepatitis C virus, genotype 2a isolate JFH-1) (UniProt Q99IB8); assay: pull-down; lysates of Huh7 replicon cells (untagged, One-STrEP-tagged NS5A wild type or PA2) passed over a STrEP-tactin Sepharose column; eluates Western blotted for NS5A and MLK3; densitometry
substance,measurement,setting,value
"NS5A expressed from the JFH1-derived subgenomic replicon (SGR-JFH1), untagged (from UniProt Q99IB8 1977-2442)",binding,[1],binds
"NS5A (genotype 2a JFH-1), wild type, expressed from a plasmid (from UniProt Q99IB8 1977-2442)",binding,[2],no binding
same,binding,[3],binds
"mixed lineage kinase 3 (MLK3), endogenous in Huh7 replicon cells (from UniProt Q16584 1-847)",binding,[4],binds
